The other results are listed elsewhere or left out. Further columns of the screen follow, without active or inactive calls. The list favours compounds with an active or inconclusive main result. Words in brackets tell the shape of the fitted curve; partial curves, single points and poor fits give uncertain potencies.
Assay: qHTS Assay to Find Inhibitors of Chronic Active B-Cell Receptor Signaling
Details: ABC-DLBCL IkBa-CBG/CBR reporter, luminescence ratio (green luciferase fused to IkBa over red control in TMD8 lymphoma cells), 4 h
Procedure, shortened: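 TMD8 ABC-DLBCL cells carrying doxycycline-inducible green luciferase fused to IkappaBalpha plus unfused red luciferase were exposed to compounds (up to 46 uM) for 4 hrs at 37C. Activity came from the overlap-corrected green/red luminescence ratio.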

[1] = measured here: CBR red luminescence, cell number
[2] = measured here: IkBa-CBG green luminescence

Compound | AC50 [1] | AC50 [2]
COc1ccc(CN2CSC(=S)N(Cc3ccccc3)C2)cc1 | 31.6 µM [rising, single point] | 35.5 µM [falling, single point]
O=C(CCCN1CCC(O)(c2ccc(Br)cc2)CC1)c1ccc(F)cc1 | 6.51 µM [falling, single point] | –
COCCn1c(SCc2cc(=O)n3cc(C)ccc3n2)nc2ccccc2c1=O | 5.62 µM [rising, full curve, poor fit] | –
C/C(=N/NC(=O)C1CC1(c1ccccc1)c1ccccc1)c1ccco1 (configuration not stated) | 29.1 µM [falling, single point] | 32.6 µM [rising, partial curve, poor fit]
O=C(CSC1=NCCS1)Nc1nc2c(s1)CCCC2 | 35.5 µM [falling, single point] | –
CN(C)c1ccc(/C=N/NC(=O)CCCO)cc1 | 7.08 µM [falling, full curve] | –
N#C/C(=C/c1cccs1)c1nc2ccccc2[nH]1 | 14.6 µM [falling, partial curve] | –
CSc1ccc(C(c2c(C(=O)O)[nH]c3ccccc23)c2c(C(=O)O)[nH]c3ccccc23)cc1 | 28.2 µM [rising, single point] | –
COc1cc(-c2cc(C(=O)NCc3ccco3)c3ccccc3n2)cc(OC)c1OC | 6.31 µM [falling, partial curve] | –
c1ccc(-c2ccc3[nH]ccc3c2)cc1 | 25.9 µM [rising, single point] | –
O=C(O)CCn1c(O)c(C=C2N=c3ccccc3=N2)sc1=S | 1.58 µM [falling, full curve] | –
COc1ccccc1Nc1cc(C(=O)NCc2cccnc2)c2ccccc2n1 | 15.8 µM [falling, single point] | –
C/C(CCc1ccccc1)=N\NC(=O)c1ccccc1[N+](=O)[O-] | 5.8 µM [falling, partial curve] | –
COC(=O)c1ccc2c(=O)n(Cc3ccc(C(=O)NCCCN4CCOCC4)cc3)c(=S)[nH]c2c1 | 0.794 µM [falling, full curve, poor fit] | –
CN1CCC(=NNC(=O)C(=O)Nc2ccccc2)CC1 | 6.31 µM [falling, partial curve] | –
Cc1cc(C)nc(SCc2nnc(SCC(=O)Nc3nccs3)n2Cc2ccco2)n1 | 20 µM [falling, single point] | –
CC1(C)CC(=O)C(=Cc2cn(CCC#N)nc2-c2ccc(F)cc2)C(=O)C1 | 25.9 µM [rising, single point] | –
Cc1cc(N/N=C/c2ccccc2)nc(N)n1 | 14.1 µM [rising, single point] | –
CCOC(=O)N1CCN(C(=O)c2ccc3c(Cl)c4c(nc3c2)CCCC4)CC1 | 12.6 µM [falling, single point] | –
C[C@@]12CCC3[C@@](CCC4[C@@]3(C)CCC[C@@]4(C)C(=O)Nc3ccc(Cl)cc3)(CC1=O)C2 (some centres not stated) | 18.4 µM [falling, partial curve] | –
FC(F)(F)c1ccnc(Oc2ccc(C3=NCCS3)cc2)c1 | 0.562 µM [rising, full curve] | –

Compound | AC50 [1] | AC50 [2]
C/C(=N\NC(=O)CCc1ccccc1)C1C(=O)c2ccccc2C1=O | 11.2 µM [falling, single point] | –
Fc1ccc(Cn2nnnc2CN2CCc3ccccc3C2)cc1 | 18.4 µM [falling, partial curve] | –
Cc1ccc(NC(=O)c2cccc(Oc3ccc([N+](=O)[O-])cc3)c2)c(C(=O)O)c1 | 3.55 µM [falling, partial curve] | –
Cc1ccc(C(c2c(C)[nH][nH]c2=O)c2c(C)[nH][nH]c2=O)cc1 | 7.08 µM [falling, partial curve] | –
COCc1ccc(CN2CCCC(C(=O)Nc3ccc(-c4cccc(OC)c4)cc3)C2)o1 (configuration not stated) | 14.1 µM [falling, single point] | –
CN1CCN(C(=O)c2cnn3c(C(F)F)cc(C4CC4)nc23)CC1 | 1.84 µM [rising, partial curve, poor fit] | –
CN(C(=O)CSc1nnc(-c2cccs2)n1C1CC1)C1CCS(=O)(=O)C1 (configuration not stated) | 6.51 µM [rising, single point] | –
Cc1cccc(NS(=O)(=O)c2ccc3c(c2)Cc2cc(S(=O)(=O)Nc4cccc(C)c4C)ccc2-3)c1C | 7.31 µM [falling, partial curve, poor fit] | –
Cc1cnc(C(=O)OCC(=O)c2csc(N3CCCCC3)n2)cn1 | 3.98 µM [rising, full curve, poor fit] | –
OCCC1CN(Cc2cccc3nonc23)CCN1Cc1ccsc1 (configuration not stated) | 4.47 µM [falling, partial curve, poor fit] | –
COCCCNCCOCCSc1ccc(Cl)cc1 | 20.6 µM [falling, partial curve, poor fit] | –
Cn1c(=O)cc(C(=O)N/N=C/c2ccc(Cl)cc2)[nH]c1=O | 11.2 µM [falling, partial curve] | –
COc1ccc(/C=N/NC(=O)c2nc(-c3ccccc3)cc(-c3ccccc3)n2)cc1OC | 2.51 µM [rising, partial curve, poor fit] | –
CC(=O)Nc1cccc(NC(=O)Cc2ccc3ccccc3c2)c1 | 4.47 µM [falling, full curve] | –
O=C(CN1CCN(S(=O)(=O)c2ccc(Cl)s2)CC1)N1CCCCC1 | 16.4 µM [rising, partial curve, poor fit] | –
Cc1ccccc1C(=O)NNC1=NCCC1 | 0.82 µM [falling, full curve, poor fit] | –
CCc1cccc(NC(=O)CCCN2C(=O)NC(C)(C)C2=O)c1 | 29.1 µM [rising, single point] | –
O=C(c1ccc(COc2ccccc2Br)cc1)N1CCCCC1 | 29.1 µM [falling, partial curve, poor fit] | –
COCc1cc(=O)oc2cc(NC(=O)c3ccc(C(C)(C)C)cc3)ccc12 | 14.1 µM [rising, single point] | –
COc1cccc(/C=N/Nc2nc3ccccc3n3cnnc23)c1O | 1.46 µM [falling, full curve, poor fit] | 3.66 µM [rising, full curve, poor fit]
CCC(=O)Nc1ccc(-c2nn3c(C)nnc3s2)cc1C | 9.2 µM [falling, partial curve, poor fit] | –

Individual results from above:
Under AC50 [1], OCCC1CN(Cc2cccc3nonc23)CCN1Cc1ccsc1 (configuration not stated) is entered as 4.47 µM [falling, partial curve, poor fit]
Under AC50 [1], Cc1ccccc1C(=O)NNC1=NCCC1 is entered as 0.82 µM [falling, full curve, poor fit]
Under AC50 [1], CN(C(=O)CSc1nnc(-c2cccs2)n1C1CC1)C1CCS(=O)(=O)C1 (configuration not stated) is entered as 6.51 µM [rising, single point]

(continued)

Compound | AC50 [1] | AC50 [2]
Cc1ccc(N=Cc2cc3c(cc2O)OC(N)=C(C#N)C3c2ccccc2)cc1 (configuration not stated) | 5.17 µM [falling, full curve] | –
CCOC(=O)c1csc(NC(=O)c2ccc(C#N)cc2)n1 | 0.501 µM [falling, full curve] | –
Cc1ccc(-c2nc(COC(=O)C3=NN(c4ccccc4)C(=O)CC3)cs2)cc1 | 1.3 µM [falling, full curve] | –
COc1ccc(C(C(=O)NCC2CCCO2)N(Cc2ccccc2)C(=O)c2snc(C(N)=O)c2N)cc1OC (configuration not stated) | 12.6 µM [rising, partial curve, poor fit] | –
CCOC(=O)c1c(C)oc2c1c(C(c1cccnc1)N1CCN(C)CC1)c(O)c1ccccc12 (configuration not stated) | 29.1 µM [rising, single point] | –
COc1ccc(CNC(=O)COC(=O)c2n[nH]c3ccccc23)cc1OC | 9.2 µM [falling, partial curve, poor fit] | –
Cc1ccc(C)c(NC(=O)CCN2C(=O)c3ccccc3C2=O)c1 | 11.2 µM [rising, partial curve, poor fit] | –
CCN1CCN(CCCNC(=O)CNC(=O)c2nn(-c3ccc(OC)cc3OC)c(=O)c3ccccc23)CC1 | 6.31 µM [rising, single point] | –
O=C(c1ccc2[nH]c3c(c2c1)CCCC3)N1CCN(c2ccc(F)cc2)CC1 | – | 25.9 µM [rising, partial curve, poor fit]
Cc1oc2nc(SCC(=O)Nc3ccc(S(N)(=O)=O)cc3)nc(NC(=O)c3ccccc3)c2c1C | 0.13 µM [falling, full curve] | –
COC(=O)c1ccc(CO/N=C2\CCCc3nonc32)cc1 | 0.501 µM [rising, full curve, poor fit] | –
CCSc1nsc(NC(=O)Nc2ccccc2OC)n1 | 0.398 µM [falling, full curve] | –
Clc1ccccc1Cc1noc(CN2CCCCC2c2ccccn2)n1 (configuration not stated) | 35.5 µM [rising, single point] | –
O=C(NCc1ccccn1)NC12CC3CC(CC(C3)C1)C2 | 6.51 µM [rising, partial curve, poor fit] | –
CCOC(=O)c1ccc(NC(=O)CC2SC(=NC)N(C)C2=O)cc1 (configuration not stated) | 13 µM [rising, partial curve, poor fit] | –
Cn1c2ccc(F)cc2c2nnc(SCC(=O)Nc3cccc(O)c3)nc21 | 17.8 µM [falling, single point] | –
O=C(Cc1ccccc1)c1ccccc1C(=O)N1CCCCC1 | 10 µM [rising, partial curve] | –
Cc1ccc(NC(=O)C2CCCCC2)c(O)c1 | 12.6 µM [falling, single point] | –
O=C(NC1CCc2ccccc21)c1cc(COc2cncc(Cl)c2)on1 (configuration not stated) | 11.2 µM [falling, partial curve] | –
COc1ccc(CN(CCC(c2ccccc2)c2ccc(OC(C)C)cc2)C(=O)CCl)cc1OC (configuration not stated) | 20 µM [falling, partial curve, poor fit] | 12.6 µM [rising, partial curve, poor fit]
CCOc1ccccc1N1C(=O)CC(Sc2n[nH]c(-c3ccccc3)n2)C1=O (configuration not stated) | 17.8 µM [falling, partial curve] | –
